{"source": "patent US20180296691A1", "about": "(Pfizer, published 2018)", "binders": {"B1": {"name": "humanized anti-EFNA4 antibody huE22 (antibody, human IgG1, kappa, V domains shown)", "VH": "QVQLVQSGAEVKKPGASVKVSCKASGYTFTGYYIHWVRQAPGQGLEWMGWIYPGNFNTKYNERFKGRVTMTTDTSTSTAYMELRSLRSDDTAVYYCAREDGSPYYAMDYWGQGTSVTVSS", "VL": "DIVMTQTPLSLSVTPGQPASISCRSSQSLVHSNGNTFLYWYLQKPGQSPQLLIYRVSNRFSGVPDRFSGSGSGTDFTLKISRVEAEDVGVYYCFQATHVPWTFGGGTKVEIKR", "notes": "human IgG1 / kappa; also called huE22 mAb; unconjugated huE22"}}, "target": "recombinant cynomolgus monkey EFNA4 extracellular domain fused to a histidine tag (cynomolgus monkey)", "experiment": "SPR (BIAcore 2000), recombinant EFNA4 ECD-His", "note": "No constants are given. Whether binding was seen depends on the method and setting. Some entries that bind do so weakly or less than the wild type.", "data": [{"binder": "B1", "values": [{"measurement": "binding", "result": "binds"}]}]}
